Experimental data from publication doi:10.1101/2022.09.30.510402.
Read-outs that look alike come from different tables or passages of the source. These are yes or no findings as the source states them, for the method shown. Binding seen in cells or lysates may run through a third protein. Some binding calls cover weakened binding; strength is not graded here. Blank lines part the entries; values can stand above or below the molecule they belong to.

Sequences of proteins named here, by UniProt entry; tags and fusion partners are left off. Residues count along the entry.
UniProt P05107, residues 23-769: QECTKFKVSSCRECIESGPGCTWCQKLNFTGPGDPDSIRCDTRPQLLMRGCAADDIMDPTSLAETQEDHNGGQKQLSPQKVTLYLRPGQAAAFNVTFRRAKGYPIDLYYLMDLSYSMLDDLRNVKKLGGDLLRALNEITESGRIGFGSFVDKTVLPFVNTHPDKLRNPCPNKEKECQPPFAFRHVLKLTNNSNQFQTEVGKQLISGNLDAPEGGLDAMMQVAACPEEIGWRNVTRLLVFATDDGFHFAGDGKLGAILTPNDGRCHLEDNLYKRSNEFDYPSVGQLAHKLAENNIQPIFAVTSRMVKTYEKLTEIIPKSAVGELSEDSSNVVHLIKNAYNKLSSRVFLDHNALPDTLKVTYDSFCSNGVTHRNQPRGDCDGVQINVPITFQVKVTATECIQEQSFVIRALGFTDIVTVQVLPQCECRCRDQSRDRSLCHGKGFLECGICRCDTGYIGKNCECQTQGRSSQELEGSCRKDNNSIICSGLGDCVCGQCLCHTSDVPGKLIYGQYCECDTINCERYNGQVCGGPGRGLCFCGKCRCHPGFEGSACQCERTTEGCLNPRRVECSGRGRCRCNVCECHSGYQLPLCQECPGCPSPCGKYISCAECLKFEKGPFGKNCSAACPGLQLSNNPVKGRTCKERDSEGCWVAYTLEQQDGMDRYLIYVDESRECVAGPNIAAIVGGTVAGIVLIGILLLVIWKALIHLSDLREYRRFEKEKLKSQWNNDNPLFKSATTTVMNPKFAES
UniProt P05556: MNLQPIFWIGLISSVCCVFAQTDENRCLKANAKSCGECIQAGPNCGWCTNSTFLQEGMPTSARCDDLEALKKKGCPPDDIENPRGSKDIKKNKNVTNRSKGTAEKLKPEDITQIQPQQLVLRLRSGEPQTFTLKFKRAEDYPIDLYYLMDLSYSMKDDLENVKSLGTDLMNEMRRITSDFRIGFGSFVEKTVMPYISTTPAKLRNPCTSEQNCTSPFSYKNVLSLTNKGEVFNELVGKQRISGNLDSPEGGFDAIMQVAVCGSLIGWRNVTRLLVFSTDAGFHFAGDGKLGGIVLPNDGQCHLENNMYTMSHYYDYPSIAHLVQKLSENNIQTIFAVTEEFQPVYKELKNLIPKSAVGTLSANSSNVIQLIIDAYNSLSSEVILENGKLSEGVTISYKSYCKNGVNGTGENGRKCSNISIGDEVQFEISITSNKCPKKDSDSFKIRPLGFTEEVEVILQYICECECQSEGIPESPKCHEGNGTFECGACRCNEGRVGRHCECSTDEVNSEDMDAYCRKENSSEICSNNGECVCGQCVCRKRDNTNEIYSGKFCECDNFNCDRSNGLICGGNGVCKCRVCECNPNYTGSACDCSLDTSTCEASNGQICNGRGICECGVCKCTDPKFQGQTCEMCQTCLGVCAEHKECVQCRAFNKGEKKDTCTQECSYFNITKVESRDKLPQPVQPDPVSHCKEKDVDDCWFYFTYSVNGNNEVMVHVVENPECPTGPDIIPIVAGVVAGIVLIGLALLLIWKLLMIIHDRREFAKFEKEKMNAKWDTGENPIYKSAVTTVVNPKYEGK
UniProt P05555, residues 17-1153: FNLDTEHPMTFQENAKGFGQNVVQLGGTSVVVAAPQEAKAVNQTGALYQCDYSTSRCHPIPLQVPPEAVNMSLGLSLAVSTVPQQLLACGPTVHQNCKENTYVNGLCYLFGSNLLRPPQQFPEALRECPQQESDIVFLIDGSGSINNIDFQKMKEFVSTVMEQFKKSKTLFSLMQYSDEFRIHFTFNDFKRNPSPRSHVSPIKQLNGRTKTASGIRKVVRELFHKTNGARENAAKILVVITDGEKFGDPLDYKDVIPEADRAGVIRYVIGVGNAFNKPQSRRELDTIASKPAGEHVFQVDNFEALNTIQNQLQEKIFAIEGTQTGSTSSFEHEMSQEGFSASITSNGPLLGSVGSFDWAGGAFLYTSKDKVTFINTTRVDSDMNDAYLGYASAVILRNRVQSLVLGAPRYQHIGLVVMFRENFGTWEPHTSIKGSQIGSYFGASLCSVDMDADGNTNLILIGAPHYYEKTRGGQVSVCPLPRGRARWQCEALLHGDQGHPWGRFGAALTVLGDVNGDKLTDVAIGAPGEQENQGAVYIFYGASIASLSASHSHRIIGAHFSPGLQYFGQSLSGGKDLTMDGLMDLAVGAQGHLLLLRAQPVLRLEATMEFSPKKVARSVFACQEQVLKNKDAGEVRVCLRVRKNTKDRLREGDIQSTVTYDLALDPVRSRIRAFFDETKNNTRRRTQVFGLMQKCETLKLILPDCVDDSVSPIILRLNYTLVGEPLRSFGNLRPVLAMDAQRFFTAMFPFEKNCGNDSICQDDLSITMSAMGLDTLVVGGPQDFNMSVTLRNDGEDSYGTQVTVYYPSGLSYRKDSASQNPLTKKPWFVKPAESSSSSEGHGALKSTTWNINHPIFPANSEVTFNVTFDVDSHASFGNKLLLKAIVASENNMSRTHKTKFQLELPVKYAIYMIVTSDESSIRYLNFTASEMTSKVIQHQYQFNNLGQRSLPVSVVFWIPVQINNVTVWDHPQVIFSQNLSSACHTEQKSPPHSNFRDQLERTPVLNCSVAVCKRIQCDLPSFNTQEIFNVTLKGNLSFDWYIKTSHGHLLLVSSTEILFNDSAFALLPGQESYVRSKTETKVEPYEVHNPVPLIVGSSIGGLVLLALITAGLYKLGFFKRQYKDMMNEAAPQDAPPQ

Legend:
Assay in all cases: co-IP
[1] = molecular target: β2 integrin subunit of Mac-1 (αMβ2, CD11b/CD18, CR3) (human) (UniProt P05107)
[2] = molecular target: β1 integrin subunit (human (endogenous in HEK293)) (UniProt P05556)
[3] = molecular target: β2 integrin subunit of Mac-1 (αMβ2, CD11b/CD18, CR3) (human) (UniProt P05107); remark: listed apart in the source
[4] = molecular target: CD47 (human (endogenous in HEK293 and in human monocytes)) (UniProt Q08722)
[5] = molecular target: mouse αM integrin subunit of Mac-1 (mouse (endogenous in peritoneal macrophages and IC-21)) (UniProt P05555)

binding [1]: binds | binding [2]: binds weakly | binding [3]: binds
Molecule: CD47 (from UniProt Q08722 19-323)

binding [4]: binds
Molecule: β2 integrin subunit of Mac-1 (αMβ2, CD11b/CD18, CR3) (from UniProt P05107 23-769) (receptor)

binding [5]: binds
B1: CD47 (mouse) (protein, UniProt Q61735 19-303)
chain: QLLFSNVNSIEFTSCNETVVIPCIVRNVEAQSTEEMFVKWKLNKSYIFIYDGNKNSTTTDQNFTSAKISVSDLINGIASLKMDKRDAMVGNYTCEVTELSREGKTVIELKNRTVSWFSPNEKILIVIFPILAILLFWGKFGILTLKYKSSHTNKRIILLLVAGLVLTVIVVVGAILLIPGEKPVKNASGLGLIVISTGILILLQYNVFMTAFGMTSFTIAILITQVLGYVLALVGLCLCIMACEPVHGPLLISGLGIIALAELLGLVYMKFVASNQRTIQPPRNR
